From paper PMC3079584
For some assays here: A negative result means that nothing was seen under these conditions. For some assays here: Weaker means in comparison with the reference protein, sequence or condition of that experiment. For some assays here: Protein sequences can lack the tags named with them. For some assays here: The exact form of at least one protein or probe is not confirmed. For some assays here: At least one verdict rests on a figure or table, not on a statement of the authors.

Amino acid sequences for entries named in this document (tags omitted). Residues count along the entry.
UniProt P36068, 1-240, stated change not applied: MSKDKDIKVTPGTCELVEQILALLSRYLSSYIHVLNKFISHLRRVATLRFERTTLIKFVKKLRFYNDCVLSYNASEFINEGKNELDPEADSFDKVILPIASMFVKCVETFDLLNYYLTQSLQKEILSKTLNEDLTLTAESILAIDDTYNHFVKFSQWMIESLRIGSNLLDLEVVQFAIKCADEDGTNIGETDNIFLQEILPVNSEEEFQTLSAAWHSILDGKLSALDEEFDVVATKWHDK
UniProt P36068, whole entry Q197A/E198A/I199A: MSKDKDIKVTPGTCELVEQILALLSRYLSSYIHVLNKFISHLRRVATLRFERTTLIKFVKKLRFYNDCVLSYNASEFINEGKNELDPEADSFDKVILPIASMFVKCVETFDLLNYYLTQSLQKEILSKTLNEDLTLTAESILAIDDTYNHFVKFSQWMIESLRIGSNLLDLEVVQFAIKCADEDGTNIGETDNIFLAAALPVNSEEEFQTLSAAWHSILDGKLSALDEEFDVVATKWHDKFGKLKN
UniProt P36068, whole entry F195A/L196A: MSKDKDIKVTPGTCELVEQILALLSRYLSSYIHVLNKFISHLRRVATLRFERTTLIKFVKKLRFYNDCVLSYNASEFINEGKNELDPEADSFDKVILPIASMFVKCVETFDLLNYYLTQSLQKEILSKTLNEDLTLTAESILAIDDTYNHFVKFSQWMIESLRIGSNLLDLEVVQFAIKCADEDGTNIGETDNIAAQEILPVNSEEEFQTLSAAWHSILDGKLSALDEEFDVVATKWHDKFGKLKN
UniProt Q04373, 2-656: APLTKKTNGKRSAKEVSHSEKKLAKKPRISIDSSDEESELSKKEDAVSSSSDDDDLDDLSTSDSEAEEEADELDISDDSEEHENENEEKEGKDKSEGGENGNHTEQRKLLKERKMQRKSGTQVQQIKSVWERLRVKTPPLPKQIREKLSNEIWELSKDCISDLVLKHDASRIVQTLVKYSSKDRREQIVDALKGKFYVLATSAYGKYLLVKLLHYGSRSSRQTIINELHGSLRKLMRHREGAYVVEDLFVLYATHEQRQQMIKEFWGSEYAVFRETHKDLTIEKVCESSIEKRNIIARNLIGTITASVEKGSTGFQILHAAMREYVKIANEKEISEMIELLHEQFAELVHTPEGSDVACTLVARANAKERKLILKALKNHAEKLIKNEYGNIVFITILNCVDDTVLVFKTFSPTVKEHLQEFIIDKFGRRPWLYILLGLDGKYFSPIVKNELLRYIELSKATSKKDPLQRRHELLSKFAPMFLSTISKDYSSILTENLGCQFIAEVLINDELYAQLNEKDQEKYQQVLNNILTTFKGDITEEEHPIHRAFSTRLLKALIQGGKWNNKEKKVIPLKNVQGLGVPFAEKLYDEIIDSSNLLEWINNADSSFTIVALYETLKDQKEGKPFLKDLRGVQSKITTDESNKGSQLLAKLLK

Experiments:
[1] = biological target: She2p (ΔhE) del174-183 (Saccharomyces cerevisiae) (UniProt P36068); experiment: filter binding; settings: filter binding: 20 mM HEPES pH 7.4-7.5 (7.9 with She3p), 150 mM NaCl, 2 mM MgCl2, 2 mM DTT, 30 ug/ml yeast tRNA, 0.5 nM RNA, recombinant protein, protein details: GST tag (PreScission-cleaved), label: 32P
[2] = biological target: She2p (ΔC) (Saccharomyces cerevisiae) (UniProt P36068); experiment: filter binding; settings: filter binding: 20 mM HEPES pH 7.4-7.5 (7.9 with She3p), 150 mM NaCl, 2 mM MgCl2, 2 mM DTT, 30 ug/ml yeast tRNA, 0.5 nM RNA, recombinant protein, protein details: GST tag (PreScission-cleaved), label: 32P
She2p (ΔC) + She3p [3] = experiment: EMSA; settings: impaired, not abolished; EMSA: 20 mM HEPES pH 7.8, 200 mM NaCl, 2 mM MgCl2, 2 mM DTT, 4% glycerol, 30 or 100 ug/ml yeast tRNA, 5 nM RNA, 20 C; recombinant protein; protein details: GST tag (PreScission-cleaved),C-terminal His6; label: 32P
[4] = biological target: Puf6p (Saccharomyces cerevisiae) (UniProt Q04373); experiment: competition with a labelled probe; settings: 10-500x unlabeled EAR1 vs ASH1-E3 probe, competes poorly; EMSA: 20 mM HEPES pH 7.8, 200 mM NaCl, 2 mM MgCl2, 2 mM DTT, 4% glycerol, 30 or 100 ug/ml yeast tRNA, 5 nM RNA, 20 C; recombinant protein; label: 32P
She2p (ΔC) + She3p [5] = experiment: size-exclusion chromatography; settings: no ternary complex; recombinant protein; protein details: GST tag (PreScission-cleaved),C-terminal His6
She2p + She3p = experiment: size-exclusion chromatography; settings: no ternary complex; recombinant protein; protein details: GST tag (PreScission-cleaved),C-terminal His6
Puf6p + She2p = experiment: pull-down; settings: GST-Puf6p immobilized; pull-down: HNMD buffer, 4 C; recombinant protein
Puf6p + She2p + She3p = experiment: pull-down; settings: His-She3p immobilized, no Puf6p co-elution; pull-down: HNMD buffer, 4 C; recombinant protein
GST = GST (UniProt P08515); experiment: pull-down; settings: immobilized GST control; pull-down: HNMD buffer, 4 C; recombinant protein
She2p + She3p (S348E) = experiment: EMSA; settings: synergism ++; EMSA: 20 mM HEPES pH 7.8, 200 mM NaCl, 2 mM MgCl2, 2 mM DTT, 4% glycerol, 30 or 100 ug/ml yeast tRNA, 5 nM RNA, 20 C; recombinant protein; protein details: GST tag (PreScission-cleaved),C-terminal His6; label: 32P
[6] = test system: She2p (Q197A E198A I199A) + She3p; experiment: EMSA; settings: synergism +; EMSA: 20 mM HEPES pH 7.8, 200 mM NaCl, 2 mM MgCl2, 2 mM DTT, 4% glycerol, 30 or 100 ug/ml yeast tRNA, 5 nM RNA, 20 C; recombinant protein; protein details: GST tag (PreScission-cleaved),C-terminal His6; label: 32P
[7] = test system: She2p (F195A L196A) + She3p; experiment: EMSA; settings: synergism +; EMSA: 20 mM HEPES pH 7.8, 200 mM NaCl, 2 mM MgCl2, 2 mM DTT, 4% glycerol, 30 or 100 ug/ml yeast tRNA, 5 nM RNA, 20 C; recombinant protein; protein details: GST tag (PreScission-cleaved),C-terminal His6; label: 32P
She2p + She3p (354-425) = experiment: EMSA; settings: synergism +; EMSA: 20 mM HEPES pH 7.8, 200 mM NaCl, 2 mM MgCl2, 2 mM DTT, 4% glycerol, 30 or 100 ug/ml yeast tRNA, 5 nM RNA, 20 C; recombinant protein; label: 32P
[8] = test system: She2p + She3p (L364A V367A); experiment: EMSA; settings: synergism +; EMSA: 20 mM HEPES pH 7.8, 200 mM NaCl, 2 mM MgCl2, 2 mM DTT, 4% glycerol, 30 or 100 ug/ml yeast tRNA, 5 nM RNA, 20 C; recombinant protein; protein details: GST tag (PreScission-cleaved),C-terminal His6; label: 32P
[9] = biological target: T1, She3p (354-425) (Saccharomyces cerevisiae) (UniProt P38272); experiment: EMSA; settings: ++; EMSA: 20 mM HEPES pH 7.8, 200 mM NaCl, 2 mM MgCl2, 2 mM DTT, 4% glycerol, 30 or 100 ug/ml yeast tRNA, 5 nM RNA, 20 C; recombinant protein; residues 354-425; protein details: MBP and His6 (EMSA), His6 (SEC); label: 32P
T1 sequence (looked up): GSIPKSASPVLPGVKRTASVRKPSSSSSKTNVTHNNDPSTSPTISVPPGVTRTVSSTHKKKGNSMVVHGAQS

[10] = biological target: She2p (Q197A E198A I199A) (Saccharomyces cerevisiae) (UniProt P36068); experiment: filter binding; settings: vs wild type, range over two mutants; filter binding: 20 mM HEPES pH 7.4-7.5 (7.9 with She3p), 150 mM NaCl, 2 mM MgCl2, 2 mM DTT, 30 ug/ml yeast tRNA, 0.5 nM RNA; recombinant protein; protein details: GST tag (PreScission-cleaved); label: 32P
[11] = biological target: She2p (F195A L196A) (Saccharomyces cerevisiae) (UniProt P36068); experiment: filter binding; settings: vs wild type, range over two mutants; filter binding: 20 mM HEPES pH 7.4-7.5 (7.9 with She3p), 150 mM NaCl, 2 mM MgCl2, 2 mM DTT, 30 ug/ml yeast tRNA, 0.5 nM RNA; recombinant protein; protein details: GST tag (PreScission-cleaved); label: 32P

UUGCGAAUAGAGACAUUCUAUCGAACAAUUCCAAAUCUAAUGUAAGGAAACCAUCUAAGAACAAAAUCUCAAAGCAA [ASH1 E2A]
binding result ([1]; residues …): binds more weakly
binding result [2]: binds more weakly

UUAUCCAUUGCACUCCGGAUGU [U1 snRNA hairpin II]
binding result ([1]; not reduced vs wild type, residues 1-246): binds
binding result ([2]; not reduced vs wild type): binds

AUCUUCAUCUCCAUCUCCCUCCACACCGACGAAAAGUGGCAAGAUGAGAUCAAGAUCA [ASH1 E2B (domain 1)]
binding result ([1]; residues …): binds more weakly
binding result [2]: binds more weakly

AAGACUAUGUUAAAAUACGCGAAGAAGUGGCUCAUUUCAAGCCAUUAAGUAUACCCAACUUAACUAAUAAUCAAAAUAA [ASH1 E1]
binding result ([1]; residues …): binds more weakly
binding result [2]: binds more weakly

CGAAGAUGAAAAUGAUCACGAGAGAGAUCCCGAACAAUUUUCAGAAUUUG [EAR1 zip code]
binding result (She2p (ΔC) + She3p [3]): binds more weakly
binding result [4]: binds more weakly
binding result ([1]; moderately reduced, residues 1-246): binds more weakly
binding result ([2]; moderately reduced): binds more weakly

AGUUCAAAAACGUCCACGAAAUUGGACACGAAAACU [WSC2N]
binding result ([1]; almost abolished, residues 1-246): binds more weakly
binding result ([2]; moderately reduced): binds more weakly

GGCUACGUAGCUCAGUUGGUUAGAGCAGCGGCCUGAAUCUCUUUCAACUAAUAAGAGACAUUAUCAGGCCGCGGGUCACAGGUUCGAAUCCCGUCGUAGCCACCA [E3-33-tRNA]
binding result (She2p (ΔC) + She3p [5]): no binding
binding result (She2p + She3p): no binding
binding result (Puf6p + She2p): no binding
binding result (Puf6p + She2p + She3p): no binding

GGCUACGUAGCUCAGUUGGUUAGAGCAGCGGCCGGAGACAGUAGAGAAUUGAUACAUGGAUAACUGAAUCUCUUUCAACUAAUAAGAGACAUUAUCACGAAACAAUUGUACAUUUCUCUCCUUGUCUGUGCUAAAUAAACUACAAAUAAAAACCGCGGGUCACAGGUUCGAAUCCCGUCGUAGCCACCA [E3-118-tRNA]
binding result (GST): no binding

GAGACAGUAGAGAAUUGAUACAUGGAUAACUGAAUCUCUUUCAACUAAUAAGAGACAUUAUCACGAAACAAUUGUACAUUUCUCUCCUUGUCUGUGCUAAAUAAACUACAAAUAAAAA [ASH1 E3-118]
binding result (She2p + She3p (S348E)): binds more weakly
binding result [6]: binds more weakly
binding result [7]: binds more weakly
binding result (She2p + She3p (354-425)): binds more weakly
binding result [8]: binds more weakly
binding result [9]: binds more weakly
binding result [10]: binds more weakly
binding result ([1]; +, residues 1-246): binds more weakly
binding result [11]: binds more weakly
binding result ([2]; +): binds more weakly
